Assay results published in patent US20260234232A1 (QUAERITE BIOPHARM RESEARCH BEIJING, published 2026).
No constants are given. Whether binding was seen depends on the method and setting. Some results given as binding are weak or reduced against the parent protein; the word gives no strength.

Protein sequences, listed by entry. Tags and fused reporters are not part of them. Lines headed by an entry give the natural chain unless they say otherwise; changes in a name come on top. Chains listed by the source or under a name are the forms on record and can include a tag or linker.
human VEGFA165 (P15692-4, form named): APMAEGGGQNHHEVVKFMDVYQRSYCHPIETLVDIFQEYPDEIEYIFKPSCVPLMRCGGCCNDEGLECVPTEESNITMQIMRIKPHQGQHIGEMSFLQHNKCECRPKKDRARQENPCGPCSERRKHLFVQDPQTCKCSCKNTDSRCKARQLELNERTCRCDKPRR

Key:
human VEGFA165 [1] = target: T1, human VEGFA165 (human, UniProt P15692-4 27-191); assay: ELISA, human VEGFA165 coated on the plate, anti-His detection
T1 construct: Bought protein from two suppliers, treated as one molecule; the supplier is named under assay; also called antigen VEGFA

human VEGFA165 [2] = target: T1, human VEGFA165; assay: competitive ELISA, VEGFA coated on the plate, competitor VEGFR2-ECD-Fc at 1 nM, anti-human IgG detection

| binding (human VEGFA165 [1]) | binding (human VEGFA165 [2]) | Binder |
| --- | --- | --- |
| binds | binds | 2V1-EAAAK-Turn (VHH, Tandem bivalent nanobody) QLQLVESGGGSVQPGGSLRLSCEVSGRTFSSYTMGWFRQAPGKEREFVVAISKGGYKYDSVSLEARFTISKDNTKNTVYLQMNSLKPEDTAVYYCAATRAYGSSRLRLADTYEYWGQGTQVTVSSPDSEAAAKEAAAKEAAAKEAAAKEAAAKPDGSSQLQLVESGGGSVQPGGSLRLSCEVSGRTFSSYTMGWFRQAPGKEREFVVAISKGGYKYDSVSLEARFTISKDNTKNTVYLQMNSLKPEDTAVYYCAATRAYGSSRLRLADTYEYWGQGTQVTVSS |
| binds | binds | 2V15-EAAAK-Turn (VHH, Tandem bivalent nanobody) QLQLVESGGGSVQPGGSLRLSCEVSGRTFASYTMGWFRQAPGKEREFVVAISKGGYKYDSVSLEARFTISKDNTKNTVYLQMNSLKPEDTAVYYCAGTRAYGSSRLRLAETYEYWGQGTQVTVSSPDSEAAAKEAAAKEAAAKEAAAKEAAAKPDGSSQLQLVESGGGSVQPGGSLRLSCEVSGRTFASYTMGWFRQAPGKEREFVVAISKGGYKYDSVSLEARFTISKDNTKNTVYLQMNSLKPEDTAVYYCAGTRAYGSSRLRLAETYEYWGQGTQVTVSS |
